Source: patent US9211305B2, “Pharmaceutical compositions with glycosaminoglycans and use thereof in the treatment of chronic ulcers” (LABORATORIOS FARMACEUTICOS ROVI S.A., priority 2008, dated 2015)
At least one compound was matched to its structure with a doubt left. Some entries share one result that the patent states for a list of compounds.

Amino acid sequences for entries named in this document (tags omitted). Residues count along the entry.
UniProt P01008, 33-464: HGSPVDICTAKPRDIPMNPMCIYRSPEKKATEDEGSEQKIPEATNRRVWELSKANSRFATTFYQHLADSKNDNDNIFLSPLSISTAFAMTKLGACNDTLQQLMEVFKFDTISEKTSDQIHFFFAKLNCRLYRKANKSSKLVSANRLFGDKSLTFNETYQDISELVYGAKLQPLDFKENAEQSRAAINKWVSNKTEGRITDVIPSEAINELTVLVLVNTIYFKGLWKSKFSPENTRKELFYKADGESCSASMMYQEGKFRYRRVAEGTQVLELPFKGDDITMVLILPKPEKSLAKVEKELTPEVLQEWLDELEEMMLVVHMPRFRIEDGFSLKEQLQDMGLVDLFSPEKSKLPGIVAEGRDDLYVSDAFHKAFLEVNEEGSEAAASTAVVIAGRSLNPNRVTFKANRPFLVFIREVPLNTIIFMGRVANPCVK

Legend:
diabetic wistar rat = experiment: Example 2: ulcer area reduction in streptozocin-diabetized rats, subcutaneous route; assay type: in vivo; details: day 9 with respect to day 0; bemiparin 217 IU
Description: To perform the present embodiment, doses of 45 mg/kg of streptozocin (STZ) were administered by intramuscular route to make a batch of 8 rats diabetic (Andrades Ja et al. Engineering, expression, and renaturation of a collagen-targeted human bFGF fusion protein. Growth Factors. 2001; 18(4):261-75).
Male wistar rats with a average weight of 250 g per rat were used, to which a dose of 11.25 mg STZ per rat was administered by means of the intramuscular administration of 100 μL in the left paw of each rat.
Sweetened water (350 mg/dL) was administered to all the rats for three days and glucose measurements were performed with a glucometer every day to verify that the rats were indeed diabetized. For this reason, before the administration and at time 4 days after the administration of streptozocin, a drop of blood was extracted from the rat tail vein for the subsequent quantification of glycemia and see whether they were diabetic before starting the ulceration assay.
Once the rats were diabetized, 2 ulcers with a diameter of 1 cm each were made on them using a scalpel. An anesthesia/analgesia protocol with ketamine/xylazine was followed according to the recommendations of the book: “Handbook of laboratory animal management and welfare”: […]
The diameter of the ulcer was quantified by means of tracing the ulcer onto a transparency to see the progress of the healing.

[1] = tested on: C57BL/KsJ-db/db diabetic mouse; experiment: Example 4: wound healing in genetically diabetic mouse, subcutaneous route; assay type: in vivo
Description: The genetically diabetic mouse develops resistance to insulin and hyperglycemia similar to those observed in adult diabetes. The total thickness wounds made in the back of these animals takes longer in forming the granulation tissue and in closing than the same wounds caused in non-diabetic animals.
On the first day of the assay, the animals were anesthetized (ketamine+xylazine, 100+10 mg/kg, i.m.). The back of the animal was shaved, the area was cleaned with disinfectant and the location of the wound was marked by means of a template to make its position the same in all the animals.
The wound was made by means of a circular incision with a diameter of approximately 1.5 cm, the skin of the mid-dorsal area being removed. A semipermeable dressing was subsequently placed on the wound. 1 mL/animal of physiological serum was administered by i.p. route after the intervention.
The wound area was calculated as the percentage of reduction thereof to evaluate the degree of curing thereof, by means of the standardized formula: […]
The measurement performed immediately after the intervention or incision was used as the baseline area. On the following day and for a total of 14 days, the assigned treatments were administered to the animals. […]

antithrombin III (ATIII) = antithrombin III (ATIII) (Homo sapiens, UniProt P01008); details: cited from earlier work

Compound	macroscopic healing process (diabetic wistar rat)	granulation tissue in the wound, macroscopic ([1]; after the fifth day of treatment)	enhancement of the innate neutralization of factor Xa by ATIII (antithrombin III (ATIII))	percentage of healing of the wound ([1]; after day 11 of administration)
CO[C@H]1O[C@H](COS(=O)(=O)O)[C@@H](O[C@@H]2O[C@@H](C(=O)O)[C@@H](O[C@H]3O[C@H](COS(=O)(=O)O)[C@@H](O[C@@H]4O[C@H](C(=O)O)[C@@H](O[C@H]5O[C@H](COS(=O)(=O)O)[C@@H](O)[C@H](O)[C@H]5NS(=O)(=O)O)[C@H](O)[C@H]4O)[C@H](OS(=O)(=O)O)[C@H]3NS(=O)(=O)O)[C@H](O)[C@H]2OS(=O)(=O)O)[C@H](O)[C@H]1NS(=O)(=O)O [Fondaparinux]	hardly variation on day 9 with respect to day 0	only seen in the edges of the wounds	300 times	–
Bemiparin	–	–	–	above 80%
